In assay [1] the target is Flag-tagged TEAD4 (human) (UniProt Q15561). In words: co-IP.
In assay [2] the target is TEAD4 YBD domain (217-434) with N-terminal SUMO and 6xHis tag (human) (UniProt Q15561). In words: pull-down.

Protein sequences, listed by entry. Tags and fused reporters are not part of them. Lines headed by an entry give the natural chain unless they say otherwise; changes in a name come on top. Chains listed by the source or under a name are the forms on record and can include a tag or linker. Residues count along the entry.
UniProt Q15561: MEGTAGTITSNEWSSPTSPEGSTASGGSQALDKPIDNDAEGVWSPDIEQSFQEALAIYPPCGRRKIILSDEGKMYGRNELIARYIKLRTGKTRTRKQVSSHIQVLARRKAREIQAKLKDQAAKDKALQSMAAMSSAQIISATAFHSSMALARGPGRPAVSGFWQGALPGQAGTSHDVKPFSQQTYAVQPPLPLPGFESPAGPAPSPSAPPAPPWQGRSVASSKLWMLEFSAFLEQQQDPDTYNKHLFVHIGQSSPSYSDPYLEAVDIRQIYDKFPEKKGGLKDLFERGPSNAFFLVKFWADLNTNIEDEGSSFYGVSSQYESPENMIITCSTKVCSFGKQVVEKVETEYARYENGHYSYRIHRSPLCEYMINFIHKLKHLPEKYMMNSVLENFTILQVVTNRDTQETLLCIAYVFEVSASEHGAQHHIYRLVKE
TEAD4 YBD domain (217-434) with N-terminal SUMO and 6xHis tag: residues 217-434 of Q15561
UniProt P35240: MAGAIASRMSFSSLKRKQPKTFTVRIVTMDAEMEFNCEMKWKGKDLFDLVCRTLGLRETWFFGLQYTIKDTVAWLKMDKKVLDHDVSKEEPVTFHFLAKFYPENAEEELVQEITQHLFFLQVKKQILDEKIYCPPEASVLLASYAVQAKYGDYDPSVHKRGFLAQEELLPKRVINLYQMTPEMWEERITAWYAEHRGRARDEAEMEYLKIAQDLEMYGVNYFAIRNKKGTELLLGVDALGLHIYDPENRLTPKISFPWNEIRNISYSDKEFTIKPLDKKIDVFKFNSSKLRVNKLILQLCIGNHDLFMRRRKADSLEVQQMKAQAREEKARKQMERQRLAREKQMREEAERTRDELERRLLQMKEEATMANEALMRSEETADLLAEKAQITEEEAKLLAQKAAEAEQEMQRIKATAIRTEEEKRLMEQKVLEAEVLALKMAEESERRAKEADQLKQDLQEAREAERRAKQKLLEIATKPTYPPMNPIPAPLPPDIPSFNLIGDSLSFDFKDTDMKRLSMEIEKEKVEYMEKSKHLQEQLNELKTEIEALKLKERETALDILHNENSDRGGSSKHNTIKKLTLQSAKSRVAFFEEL
Myc-tagged NF2-4A-del (L297A/I301A/H304A/L582A and deletion of 590-595 aa) (P35240, form named): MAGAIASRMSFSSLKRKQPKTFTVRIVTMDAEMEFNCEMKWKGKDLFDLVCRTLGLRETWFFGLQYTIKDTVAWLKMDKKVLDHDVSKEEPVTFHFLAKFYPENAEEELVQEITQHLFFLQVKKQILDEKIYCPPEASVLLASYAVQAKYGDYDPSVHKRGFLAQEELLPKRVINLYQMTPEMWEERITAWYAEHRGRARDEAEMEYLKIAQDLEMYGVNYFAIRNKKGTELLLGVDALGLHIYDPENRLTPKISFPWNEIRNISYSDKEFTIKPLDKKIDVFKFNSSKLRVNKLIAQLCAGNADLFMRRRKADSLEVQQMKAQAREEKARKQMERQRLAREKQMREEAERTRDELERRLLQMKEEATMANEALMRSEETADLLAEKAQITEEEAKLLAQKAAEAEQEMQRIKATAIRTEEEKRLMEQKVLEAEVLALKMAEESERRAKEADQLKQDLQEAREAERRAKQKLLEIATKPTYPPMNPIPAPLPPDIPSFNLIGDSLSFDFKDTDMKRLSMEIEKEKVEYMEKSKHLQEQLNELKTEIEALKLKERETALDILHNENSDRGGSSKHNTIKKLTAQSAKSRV

Results are given in words; binding and its absence hold for the method and conditions named. For some of these results: Binding seen in cells or lysates may run through a third protein. Some entries that bind do so weakly or less than the wild type.

Turning to “Myc-tagged NF2 WT (from UniProt P35240 1-595)”, the binding result in assay [1] was “binds”.
On the same count and under the same terms, the entry for “Myc-tagged NF2-4A-del (L297A/I301A/H304A/L582A and deletion of 590-595 aa) (from UniProt P35240 1-595)” is “no binding”.
Consider “Myc-tagged NF2-5A (L297A/I301A/H304A/L582A/F591A) (from UniProt P35240 1-595)”, for which the binding entry in assay [1] was “no binding”.
“NF2 (competitor in the in vitro competitive binding assay) (from UniProt P35240 1-595)”: in assay [2], the binding result was “binds”.

These data come from doi:10.1101/2022.11.28.518166.
